The labels stand for the following.
T1: Flag-USP40 (in HLMVECs) (human) (UniProt Q9NVE5)
T1 sequence: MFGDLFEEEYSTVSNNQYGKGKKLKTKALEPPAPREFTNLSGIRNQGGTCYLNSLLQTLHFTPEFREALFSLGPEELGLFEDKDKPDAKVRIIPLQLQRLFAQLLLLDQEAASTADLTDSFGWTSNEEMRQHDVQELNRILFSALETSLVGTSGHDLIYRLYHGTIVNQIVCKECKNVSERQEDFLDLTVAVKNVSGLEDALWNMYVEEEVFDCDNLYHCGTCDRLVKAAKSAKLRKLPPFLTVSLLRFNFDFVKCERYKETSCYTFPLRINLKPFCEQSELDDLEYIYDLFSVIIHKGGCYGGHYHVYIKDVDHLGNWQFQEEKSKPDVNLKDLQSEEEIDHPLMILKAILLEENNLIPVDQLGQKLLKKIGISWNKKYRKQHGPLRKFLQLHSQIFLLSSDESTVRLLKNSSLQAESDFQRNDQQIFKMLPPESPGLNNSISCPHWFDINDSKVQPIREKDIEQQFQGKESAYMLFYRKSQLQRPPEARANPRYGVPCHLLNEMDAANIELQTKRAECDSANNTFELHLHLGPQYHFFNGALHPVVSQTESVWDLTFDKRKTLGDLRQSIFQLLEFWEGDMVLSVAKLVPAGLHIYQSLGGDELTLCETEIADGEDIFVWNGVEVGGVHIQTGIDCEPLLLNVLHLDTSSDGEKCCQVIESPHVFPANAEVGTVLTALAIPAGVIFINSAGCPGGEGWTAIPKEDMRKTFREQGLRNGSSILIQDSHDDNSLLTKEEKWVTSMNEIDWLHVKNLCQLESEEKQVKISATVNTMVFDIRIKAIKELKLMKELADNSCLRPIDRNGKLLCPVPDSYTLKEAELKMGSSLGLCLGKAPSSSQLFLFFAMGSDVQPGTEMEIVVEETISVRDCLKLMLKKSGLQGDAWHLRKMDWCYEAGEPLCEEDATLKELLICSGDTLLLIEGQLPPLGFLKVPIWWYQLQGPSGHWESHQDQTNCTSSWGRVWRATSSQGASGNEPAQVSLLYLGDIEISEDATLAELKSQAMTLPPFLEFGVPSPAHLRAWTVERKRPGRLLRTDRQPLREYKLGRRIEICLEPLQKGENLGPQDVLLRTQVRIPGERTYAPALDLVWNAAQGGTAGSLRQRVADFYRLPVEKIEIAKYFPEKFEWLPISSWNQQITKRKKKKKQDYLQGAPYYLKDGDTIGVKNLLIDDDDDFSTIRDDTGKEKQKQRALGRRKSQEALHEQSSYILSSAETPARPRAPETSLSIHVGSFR

B1: EH domain-containing protein 4 (protein, UniProt Q9H223 1-541)
chain: MFSWMGRQAGGRERAGGADAVQTVTGGLRSLYLRKVLPLEEAYRFHEFHSPALEDADFENKPMILLVGQYSTGKTTFIRYLLEQDFPGMRIGPEPTTDSFIAVMYGETEGSTPGNALVVDPKKPFRKLSRFGNAFLNRFMCSQLPNQVLKSISVIDSPGILSGEKQRISRGYDFCQVLQWFAERVDRIILLFDAHKLDISDEFSEAIKAFRGQDDKIRVVLNKADQVDTQQLMRVYGALMWSLGKVINTPEVLRVYIGSFWAQPLQNTDNRRLFEAEAQDLFRDIQSLPQKAAVRKLNDLIKRARLAKVHAYIISYLKKEMPSVFGKENKKRELISRLPEIYIQLQREYQISAGDFPEVKAMQEQLENYDFTKFHSLKPKLIEAVDNMLSNKISPLMNLISQEETSTPTQLVQGGAFDGTTEGPFNQGYGEGAKEGADEEEWVVAKDKPVYDELFYTLSPINGKISGVNAKKEMVTSKLPNSVLGKIWKLADCDCDGMLDEEEFALAKHLIKIKLDGYELPSSLPPHLVPPSHRKSLPKAD
B2: Erythrocyte band 7 integral membrane protein (protein, UniProt P27105 1-288)
chain: MAEKRHTRDSEAQRLPDSFKDSPSKGLGPCGWILVAFSFLFTVITFPISIWMCIKIIKEYERAIIFRLGRILQGGAKGPGLFFILPCTDSFIKVDMRTISFDIPPQEILTKDSVTISVDGVVYYRVQNATLAVANITNADSATRLLAQTTLRNVLGTKNLSQILSDREEIAHNMQSTLDDATDAWGIKVERVEIKDVKLPVQLQRAMAAEAEASREARAKVIAAEGEMNASRALKEASMVITESPAALQLRYLQTLTTIAAEKNSTIVFPLPIDMLQGIIGAKHSHLG
B3: Non-POU domain-containing octamer-binding protein (protein, UniProt Q15233 1-471)
chain: MQSNKTFNLEKQNHTPRKHHQHHHQQQHHQQQQQQPPPPPIPANGQQASSQNEGLTIDLKNFRKPGEKTFTQRSRLFVGNLPPDITEEEMRKLFEKYGKAGEVFIHKDKGFGFIRLETRTLAEIAKVELDNMPLRGKQLRVRFACHSASLTVRNLPQYVSNELLEEAFSVFGQVERAVVIVDDRGRPSGKGIVEFSGKPAARKALDRCSEGSFLLTTFPRPVTVEPMDQLDDEEGLPEKLVIKNQQFHKEREQPPRFAQPGSFEYEYAMRWKALIEMEKQQQDQVDRNIKEAREKLEMEMEAARHEHQVMLMRQDLMRRQEELRRMEELHNQEVQKRKQLELRQEEERRRREEEMRRQQEEMMRRQQEGFKGTFPDAREQEIRMGQMAMGGAMGINNRGAMPPAPVPAGTPAPPGPATMMPDGTLGLTPPTTERFGQAATMEGIGAIGGTPPAFNRAAPGAEFAPNKRRRY
B4: Unconventional myosin-Id (protein, UniProt O94832 1-1006)
chain: MAEQESLEFGKADFVLMDTVSMPEFMANLRLRFEKGRIYTFIGEVVVSVNPYKLLNIYGRDTIEQYKGRELYERPPHLFAIADAAYKAMKRRSKDTCIVISGESGAGKTEASKYIMQYIAAITNPSQRAEVERVKNMLLKSNCVLEAFGNAKTNRNDNSSRFGKYMDINFDFKGDPIGGHINNYLLEKSRVIVQQPGERSFHSFYQLLQGGSEQMLRSLHLQKSLSSYNYIHVGAQLKSSINDAAEFRVVADAMKVIGFKPEEIQTVYKILAAILHLGNLKFVVDGDTPLIENGKVVSIIAELLSTKTDMVEKALLYRTVATGRDIIDKQHTEQEASYGRDAFAKAIYERLFCWIVTRINDIIEVKNYDTTIHGKNTVIGVLDIYGFEIFDNNSFEQFCINYCNEKLQQLFIQLVLKQEQEEYQREGIPWKHIDYFNNQIIVDLVEQQHKGIIAILDDACMNVGKVTDEMFLEALNSKLGKHAHFSSRKLCASDKILEFDRDFRIRHYAGDVVYSVIGFIDKNKDTLFQDFKRLMYNSSNPVLKNMWPEGKLSITEVTKRPLTAATLFKNSMIALVDNLASKEPYYVRCIKPNDKKSPQIFDDERCRHQVEYLGLLENVRVRRAGFAFRQTYEKFLHRYKMISEFTWPNHDLPSDKEAVKKLIERCGFQDDVAYGKTKIFIRTPRTLFTLEELRAQMLIRIVLFLQKVWRGTLARMRYKRTKAALTIIRYYRRYKVKSYIHEVARRFHGVKTMRDYGKHVKWPSPPKVLRRFEEALQTIFNRWRASQLIKSIPASDLPQVRAKVAAVEMLKGQRADLGLQRAWEGNYLASKPDTPQTSGTFVPVANELKRKDKYMNVLFSCHVRKVNRFSKVEDRAIFVTDRHLYKMDPTKQYKVMKTIPLYNLTGLSVSNGKDQLVVFHTKDNKDLIVCLFSKQPTHESRIGELVGVLVNHFKSEKRHLQVNVTNPVQCSLHGKKCTVSVETRLNQPQPDFTKNRSGFILSVPGN

These are yes or no findings as the source states them, for the method shown. Binding seen in cells or lysates may run through a third protein. A yes stands for co-enrichment or nearness to the bait. Other partners may have been found. Where a sequence is shown, tags or fusion partners need not be part of it.

This assay has as its target T1, Flag-USP40 (in HLMVECs) (human). In words: affinity purification with mass spectrometry; Flag-USP40 immunoprecipitated from transfected HLMVECs with FLAG-M2 affinity gel; eluted under reducing conditions, SDS-PAGE, Coomassie, bands excised, in-gel trypsin digestion, LC-MS.
B1: the binding result is on record as “binds”. Then B2, with “binds”. As for B3, the binding result is reported as “binds”.

B4: the binding entry was “binds”.

These data come from publication PMC10907362.
